Measured values from PMC8831215.
Results are given in words; binding and its absence hold for the method and conditions named. In cells and extracts the contact can be indirect. Some binding calls cover weakened binding; strength is not graded here.

Sequences of proteins named here, by UniProt entry; tags and fusion partners are left off. A change or cut given only in a name is not applied to a line headed by its entry.
UniProt Q63HN8: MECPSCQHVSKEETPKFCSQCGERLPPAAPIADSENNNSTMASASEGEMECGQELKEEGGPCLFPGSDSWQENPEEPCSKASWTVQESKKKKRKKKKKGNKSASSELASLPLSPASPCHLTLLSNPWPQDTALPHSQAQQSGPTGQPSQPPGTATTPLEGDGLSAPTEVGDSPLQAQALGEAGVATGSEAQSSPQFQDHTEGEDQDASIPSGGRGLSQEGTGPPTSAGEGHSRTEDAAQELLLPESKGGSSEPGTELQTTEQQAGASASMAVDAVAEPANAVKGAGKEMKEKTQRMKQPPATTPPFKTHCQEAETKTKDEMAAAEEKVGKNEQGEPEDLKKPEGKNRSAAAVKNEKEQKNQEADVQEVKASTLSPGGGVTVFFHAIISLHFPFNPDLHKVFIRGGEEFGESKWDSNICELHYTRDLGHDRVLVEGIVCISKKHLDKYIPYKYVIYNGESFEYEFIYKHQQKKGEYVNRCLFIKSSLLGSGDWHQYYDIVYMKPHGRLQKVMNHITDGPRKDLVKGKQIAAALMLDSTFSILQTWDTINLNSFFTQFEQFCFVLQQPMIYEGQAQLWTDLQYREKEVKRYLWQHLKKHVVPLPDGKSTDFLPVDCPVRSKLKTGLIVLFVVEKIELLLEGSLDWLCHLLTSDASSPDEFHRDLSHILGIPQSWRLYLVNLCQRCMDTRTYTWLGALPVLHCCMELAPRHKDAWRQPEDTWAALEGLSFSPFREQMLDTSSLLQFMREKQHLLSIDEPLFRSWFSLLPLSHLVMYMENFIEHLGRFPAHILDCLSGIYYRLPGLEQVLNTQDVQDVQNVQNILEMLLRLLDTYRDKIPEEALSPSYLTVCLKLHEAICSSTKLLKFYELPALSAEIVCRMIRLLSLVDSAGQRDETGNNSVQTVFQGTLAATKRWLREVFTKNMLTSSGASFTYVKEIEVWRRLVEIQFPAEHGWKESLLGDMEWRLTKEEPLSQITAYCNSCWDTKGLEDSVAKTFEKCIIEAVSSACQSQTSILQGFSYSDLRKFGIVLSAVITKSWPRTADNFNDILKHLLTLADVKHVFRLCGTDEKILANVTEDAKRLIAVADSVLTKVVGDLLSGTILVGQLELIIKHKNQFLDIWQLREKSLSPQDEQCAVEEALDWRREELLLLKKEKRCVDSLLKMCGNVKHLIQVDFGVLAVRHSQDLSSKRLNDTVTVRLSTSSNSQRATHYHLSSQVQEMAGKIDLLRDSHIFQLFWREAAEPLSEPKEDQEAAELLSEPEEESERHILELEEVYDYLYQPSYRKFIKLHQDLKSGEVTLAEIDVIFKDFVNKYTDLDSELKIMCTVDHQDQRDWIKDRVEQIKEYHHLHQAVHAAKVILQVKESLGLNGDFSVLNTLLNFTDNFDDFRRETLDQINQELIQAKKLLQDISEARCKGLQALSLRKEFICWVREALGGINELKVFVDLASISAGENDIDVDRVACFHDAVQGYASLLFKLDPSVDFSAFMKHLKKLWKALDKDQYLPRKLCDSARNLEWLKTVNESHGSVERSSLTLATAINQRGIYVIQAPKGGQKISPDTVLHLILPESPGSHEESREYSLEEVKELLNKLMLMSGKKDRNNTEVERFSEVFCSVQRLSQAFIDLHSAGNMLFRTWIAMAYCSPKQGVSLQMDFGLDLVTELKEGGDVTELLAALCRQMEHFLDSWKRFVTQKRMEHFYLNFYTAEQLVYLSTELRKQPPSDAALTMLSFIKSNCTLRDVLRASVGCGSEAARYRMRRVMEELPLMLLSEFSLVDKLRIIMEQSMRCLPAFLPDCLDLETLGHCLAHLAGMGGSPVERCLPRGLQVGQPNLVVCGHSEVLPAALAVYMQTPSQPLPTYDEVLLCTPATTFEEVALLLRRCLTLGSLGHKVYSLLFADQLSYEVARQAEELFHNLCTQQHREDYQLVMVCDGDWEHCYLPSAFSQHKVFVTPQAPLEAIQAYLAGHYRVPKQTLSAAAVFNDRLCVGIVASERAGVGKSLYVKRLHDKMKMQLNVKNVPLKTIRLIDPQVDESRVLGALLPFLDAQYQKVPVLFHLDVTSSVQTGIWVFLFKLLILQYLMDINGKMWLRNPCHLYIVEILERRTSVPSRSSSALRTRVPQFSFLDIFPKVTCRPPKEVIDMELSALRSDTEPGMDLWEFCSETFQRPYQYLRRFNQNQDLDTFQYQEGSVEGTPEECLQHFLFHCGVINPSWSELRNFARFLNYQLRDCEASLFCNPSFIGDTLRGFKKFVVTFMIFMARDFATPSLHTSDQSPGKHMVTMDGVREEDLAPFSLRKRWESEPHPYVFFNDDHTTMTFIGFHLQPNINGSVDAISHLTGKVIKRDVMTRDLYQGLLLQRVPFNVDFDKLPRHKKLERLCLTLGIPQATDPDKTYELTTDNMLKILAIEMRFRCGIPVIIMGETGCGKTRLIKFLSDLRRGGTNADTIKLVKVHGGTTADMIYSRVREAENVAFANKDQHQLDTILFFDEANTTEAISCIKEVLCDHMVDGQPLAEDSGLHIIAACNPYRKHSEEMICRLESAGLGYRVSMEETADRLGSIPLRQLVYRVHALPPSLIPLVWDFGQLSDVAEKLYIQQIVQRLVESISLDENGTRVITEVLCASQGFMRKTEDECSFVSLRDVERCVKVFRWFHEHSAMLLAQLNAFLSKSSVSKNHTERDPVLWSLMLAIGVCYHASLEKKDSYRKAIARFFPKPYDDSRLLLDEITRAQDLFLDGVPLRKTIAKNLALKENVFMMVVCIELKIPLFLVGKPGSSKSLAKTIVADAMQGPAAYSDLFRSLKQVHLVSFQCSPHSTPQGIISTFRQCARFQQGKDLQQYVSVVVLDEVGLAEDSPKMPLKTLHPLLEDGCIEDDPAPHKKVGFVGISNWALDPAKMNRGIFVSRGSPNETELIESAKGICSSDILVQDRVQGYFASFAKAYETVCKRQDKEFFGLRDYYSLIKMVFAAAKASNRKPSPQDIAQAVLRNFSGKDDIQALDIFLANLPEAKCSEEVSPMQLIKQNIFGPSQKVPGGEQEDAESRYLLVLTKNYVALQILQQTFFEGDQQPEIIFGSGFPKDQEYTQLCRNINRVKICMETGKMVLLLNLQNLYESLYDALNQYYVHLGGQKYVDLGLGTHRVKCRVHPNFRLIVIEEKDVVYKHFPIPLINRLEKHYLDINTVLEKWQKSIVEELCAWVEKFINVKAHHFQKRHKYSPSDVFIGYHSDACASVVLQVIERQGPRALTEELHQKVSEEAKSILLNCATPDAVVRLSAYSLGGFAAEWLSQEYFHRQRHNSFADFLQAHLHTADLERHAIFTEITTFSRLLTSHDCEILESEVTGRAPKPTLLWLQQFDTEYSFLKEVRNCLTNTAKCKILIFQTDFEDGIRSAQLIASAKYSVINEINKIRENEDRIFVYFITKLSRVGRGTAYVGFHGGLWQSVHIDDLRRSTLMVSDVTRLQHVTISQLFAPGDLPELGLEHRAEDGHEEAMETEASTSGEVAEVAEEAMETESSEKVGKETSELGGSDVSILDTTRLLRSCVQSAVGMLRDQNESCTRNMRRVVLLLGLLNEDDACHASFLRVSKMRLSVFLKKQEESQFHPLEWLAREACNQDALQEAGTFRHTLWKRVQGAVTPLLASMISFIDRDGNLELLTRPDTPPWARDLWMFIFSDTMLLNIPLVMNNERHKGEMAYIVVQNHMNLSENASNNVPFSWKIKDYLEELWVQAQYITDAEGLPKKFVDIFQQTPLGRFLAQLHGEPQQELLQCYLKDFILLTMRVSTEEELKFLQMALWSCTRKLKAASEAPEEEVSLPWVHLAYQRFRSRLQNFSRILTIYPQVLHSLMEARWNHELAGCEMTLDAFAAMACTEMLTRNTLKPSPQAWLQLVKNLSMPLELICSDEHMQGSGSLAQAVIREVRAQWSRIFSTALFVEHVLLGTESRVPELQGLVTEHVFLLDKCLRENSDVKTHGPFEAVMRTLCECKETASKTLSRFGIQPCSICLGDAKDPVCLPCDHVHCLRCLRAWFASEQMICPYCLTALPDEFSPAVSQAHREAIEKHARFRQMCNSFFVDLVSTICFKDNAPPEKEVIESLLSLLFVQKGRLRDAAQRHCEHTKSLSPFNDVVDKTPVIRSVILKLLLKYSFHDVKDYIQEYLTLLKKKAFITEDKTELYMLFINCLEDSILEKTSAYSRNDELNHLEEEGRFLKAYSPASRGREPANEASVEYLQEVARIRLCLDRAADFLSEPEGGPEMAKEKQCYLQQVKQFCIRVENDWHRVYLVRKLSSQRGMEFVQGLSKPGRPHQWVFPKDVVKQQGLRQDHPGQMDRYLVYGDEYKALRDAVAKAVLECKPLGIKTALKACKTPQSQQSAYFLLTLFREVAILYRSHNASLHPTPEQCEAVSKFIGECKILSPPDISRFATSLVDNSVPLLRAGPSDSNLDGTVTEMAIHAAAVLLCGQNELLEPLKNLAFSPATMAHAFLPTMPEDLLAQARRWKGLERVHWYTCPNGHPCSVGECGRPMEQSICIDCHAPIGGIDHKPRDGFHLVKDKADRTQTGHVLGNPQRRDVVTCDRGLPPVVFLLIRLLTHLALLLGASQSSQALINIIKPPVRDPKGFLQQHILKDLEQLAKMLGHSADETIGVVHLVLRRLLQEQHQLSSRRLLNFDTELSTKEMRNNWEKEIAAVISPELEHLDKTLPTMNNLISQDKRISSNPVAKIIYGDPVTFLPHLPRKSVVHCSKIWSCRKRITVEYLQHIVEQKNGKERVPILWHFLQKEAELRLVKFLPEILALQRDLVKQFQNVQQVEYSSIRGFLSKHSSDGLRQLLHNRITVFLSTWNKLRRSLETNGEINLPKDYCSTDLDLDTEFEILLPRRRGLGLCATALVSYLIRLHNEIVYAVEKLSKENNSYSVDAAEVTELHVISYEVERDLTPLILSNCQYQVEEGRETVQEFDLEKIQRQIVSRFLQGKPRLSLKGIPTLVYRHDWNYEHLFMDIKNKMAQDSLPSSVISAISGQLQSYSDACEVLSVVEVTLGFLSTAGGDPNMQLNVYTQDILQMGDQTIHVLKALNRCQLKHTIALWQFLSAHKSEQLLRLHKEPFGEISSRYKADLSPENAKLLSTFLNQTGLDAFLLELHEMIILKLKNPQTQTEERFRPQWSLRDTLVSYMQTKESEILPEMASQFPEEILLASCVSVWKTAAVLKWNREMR

Key:
Assay in all cases: co-IP; 293T cells co-transfected with EGFP-RNF213 WT and 3xFL-RNF213 WT or mutant; lysates subjected to anti-Flag immunoprecipitation, then anti-GFP immunoblotting; 1% NP-40 lysis buffer, 4 h at 4°C
[1] = target: 3x-Flag-tagged RNF213 I3999A (RING E3-defective mutant) (human) (UniProt Q63HN8)
[2] = target: 3x-Flag-tagged RNF213 R4810K (most prevalent MMD variant) (human) (UniProt Q63HN8)
[3] = target: 3x-Flag-tagged RNF213 E2488Q (AAA+ ATPase-inactive mutant) (human) (UniProt Q63HN8)

binding [1]: binds
binding [2]: binds
binding [3]: binds
Substance: EGFP-tagged WT RNF213 (from UniProt Q63HN8 1-5207)
